From PubChem BioAssay AID1347423 (Functional Genomics Laboratory (NCATS/FGL), 2020)
Among all 52,000 sequences or so, about 210 (0.4%) were called active.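 The calls were made as follows: active = gene whose silencing raises cell survival under the drug, median off-target-corrected z-score across its silencing RNAs 2 or more; inactive = the rest.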 The list shows a part of the results.

Experiment: Resistance to Poly (ADP-Ribose) Polymerase inhibitor: Gene Identification via Genome-wide siRNA Screen
Details: mouse BRCA2 R2336H ES cells, olaparib, CellTiter-Glo viability; stronger effect = higher value
Procedure, shortened: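 Mouse BRCA2 R2336H ES cells were reverse-transfected with siRNA (20 nM final), treated at 48 h with 500 nM olaparib, and read by CellTiter-Glo after 72 h. Scores: MAD-based z per siRNA, median per gene, seed off-target correction.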
With GGAUACAAUCAUCGCCAUCTT against Olfr101 the z-score was inactive: 1.1. In the case of GGCCAACAAGGAAAACAUCTT against Bcas2, the z-score is reported as inactive: 0.85. In the case of GGGAUGAUUCAAUGGAUAATT against Tbx22, the z-score is reported as inactive: -0.46. With GGUAUAAAUUUUCUCAGCUTT against Sntg1 the z-score was inactive: 1.12. With GCAAAUUUUAUCAACCGCATT against Mical3 the z-score was inactive: -0.312. In the case of “GGAAAUCCUUACGAUGCUGTT against 2410022L05Rik”, the z-score is reported as inactive: -0.903. With GGUAGAGAUGUCUAAAGAUTT against Galnt9 the z-score was inactive: 0.029. For GGAGCAGGAUAUUGAGACCTT against Ndrg1, the z-score was inactive: 1.25. With GGAGAAAGUGGACAGGGCUTT against Jph4 the z-score was inactive: -1.17. For GGCUCUUGCUUUAGUAUUCTT against Ly9, the z-score was inactive: -0.297. With GCAGUUUUAUAACAGCCCUTT against Bcs1l the z-score was inactive: 0.87. With CCUUCUUGUCCUUCUUUUCTT against Olfr503 the z-score was inactive: -0.0512. In the case of CGUGUUUGACAAGGCAUUGTT against Vps11, the z-score is reported as inactive: 0.43. With “GGCUUCAGCUAUUGGGCAATT against 4930405J24Rik” the z-score was inactive: -0.0645. In the case of AGCUGCUCUGAGUUAGAAATT against Scd2, the z-score is reported as inactive: -1.09. With “GGAUUAUCAAUGAAUAGCATT against C030002O17Rik” the z-score was inactive: 1.11. With GGAGCAUGAGGAUUACUGUTT against Fln29 the z-score was inactive: 0.111. With GGACUGAGAAGAAAUGAGUTT against Il27ra the z-score was inactive: 0.408. With CCUCAUCGUUAUUUGGAUCTT against Tacr3 the z-score was inactive: -0.306. For “GGUUUAAUGAGCAUCCCUUTT against C330039G02Rik”, the z-score was inactive: 1.09. In the case of GGUAUCUUGAGAAGCCAAUTT against Stat3, the z-score is reported as inactive: 0.549. For GGAGAUGUAACCAUAGGCCTT against Dctn6, the z-score was inactive: 0.334. For GCCUGUAAGGAGAAUCAGCTT against Car4, the z-score was inactive: -0.793. With GGACAAUAUAUCCGGAUUUTT against Mylc2b the z-score was inactive: 1.52. For CCAAGUACUGGAAAUUCAATT against Mmp15, the z-score was inactive: 1.52. With GCAGUCGCCGCUUUGUAAATT against Tlx3 the z-score was inactive: -1.31. For “GCCUCAUCGUAUAUAAAAUTT against 2010107E04Rik”, the z-score was inactive: -0.224. For GUGCAUUGUCUUUUGUAGATT against Olfr1095, the z-score was inactive: -0.255. For CCGUUUAACAGCAUAUCAUTT against Gm606, the z-score was inactive: 1.19.
